Data source: PubChem BioAssay AID504744 (Drosophila RNAi Screening Center, 2011)

Purpose: 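Identify dsRNAs that increase or decrease phospho-dAkt after insulin treatment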 (primary screen)
System: Drosophila Kc167 cells
Reagents: long dsRNA against Drosophila genes, 250 ng dsRNA per well of a 384-well plate
Time to read-out: 3 days of knock-down, then overnight serum-free starvation before stimulation
Challenge: bovine insulin at 387 nM for 10 minutes after 12 h without serum
Measurement: 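Per-well phospho-dAkt level from an in-cell fluorescent antibody stain, divided by a DNA-dye signal; log2 residuals turned into z-scores that take cell number into account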
Hit rule: 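Under insulin, a gene counts as a hit if the average z-score of two replicates lies above 2.5 or below -2.5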
In all, the deposit lists about 23,000 reagents; below is an unselected part of those with a known target gene and a result. In the full data, 98 (0.43%) were called active. 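Only hit calls are given; the phospho-dAkt signals, z-scores and hit direction were not deposited.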

After knock-down of CG6938 [DRSC10752] the results were inactive.
For Adgf-E (Adenosine deaminase-related growth factor E) [DRSC05973], the entry reads inactive.
With knock-down of CG30271 [DRSC04170], the screen gave inactive.
Against Lap1 [DRSC07454], the values are inactive.
Against Lsp2 (Larval serum protein 2) [DRSC09841] the deposit lists inactive.
Lsp2 (Larval serum protein 2) [DRSC11216] scored inactive.
CG12768 [DRSC11680] scored inactive.
Knock-down of CG7182 [DRSC10780] gave: inactive.

Copied from the entries so far (2 entries):
CG6938 [DRSC10752] | Call = inactive
Adgf-E (Adenosine deaminase-related growth factor E) [DRSC05973] | Call = inactive

The results go on:
Knock-down of BORCS5 (BLOC-1 related complex subunit 5) [DRSC19427] resulted in: inactive.
Against CG17824 (retired record) [DRSC10288], the values are inactive.
For Sumo (Small ubiquitin like modifier) [DRSC03611], the entry reads inactive.
Silencing of CG3701 (retired record) [DRSC04408] gave: inactive.
CG3701 (retired record) [DRSC04409] scored active.
With knock-down of CG8490 [DRSC07194], the record shows inactive.
CG13334 [DRSC06369] gave inactive.
CG31639 [DRSC00910] gave inactive.
CG30487 [DRSC05377] showed inactive.
After knock-down of CG15452 [DRSC20523], the record shows inactive.
Silencing of Cyp9c1 (Cytochrome P450 9c1) [DRSC04607] came out at: inactive.
With knock-down of Argp (Arginine phosphatase) [DRSC16510] the results were inactive.
Silencing of CG12688 (retired record) [DRSC17877] gave: inactive.
With knock-down of CG12688 (retired record) [DRSC17878], the record shows inactive.
After knock-down of CG18234 [DRSC10309], the record shows inactive.
